No constants are given. Whether binding was seen depends on the method and setting. Binding seen in cells or lysates may run through a third protein. Some binding calls cover weakened binding; strength is not graded here. Tags and fused reporters may be left off the sequences shown.
How the values were obtained:
Experiment in all cases: co-IP; HEK293 stably expressing HA-tagged iRhom2 variants as bait; cleared lysate on anti-HA magnetic beads for 90 min, five washes with lysis buffer (50 mM Tris, 2 mM CaCl2, 137 mM NaCl, 2 mM EDTA, 10 mM 1,10-phenanthroline, pH 7.5); endogenous prey by immunoblot and densitometry; in some panels cells treated with NH4Cl or bafilomycin for 8 h or 16 h
[1] = molecular target: T1, human iRhom2 with deletion of the TOC site, ndTOC (Δ182-192) (HA tag) (human) (UniProt Q6PJF5)
T1 sequence: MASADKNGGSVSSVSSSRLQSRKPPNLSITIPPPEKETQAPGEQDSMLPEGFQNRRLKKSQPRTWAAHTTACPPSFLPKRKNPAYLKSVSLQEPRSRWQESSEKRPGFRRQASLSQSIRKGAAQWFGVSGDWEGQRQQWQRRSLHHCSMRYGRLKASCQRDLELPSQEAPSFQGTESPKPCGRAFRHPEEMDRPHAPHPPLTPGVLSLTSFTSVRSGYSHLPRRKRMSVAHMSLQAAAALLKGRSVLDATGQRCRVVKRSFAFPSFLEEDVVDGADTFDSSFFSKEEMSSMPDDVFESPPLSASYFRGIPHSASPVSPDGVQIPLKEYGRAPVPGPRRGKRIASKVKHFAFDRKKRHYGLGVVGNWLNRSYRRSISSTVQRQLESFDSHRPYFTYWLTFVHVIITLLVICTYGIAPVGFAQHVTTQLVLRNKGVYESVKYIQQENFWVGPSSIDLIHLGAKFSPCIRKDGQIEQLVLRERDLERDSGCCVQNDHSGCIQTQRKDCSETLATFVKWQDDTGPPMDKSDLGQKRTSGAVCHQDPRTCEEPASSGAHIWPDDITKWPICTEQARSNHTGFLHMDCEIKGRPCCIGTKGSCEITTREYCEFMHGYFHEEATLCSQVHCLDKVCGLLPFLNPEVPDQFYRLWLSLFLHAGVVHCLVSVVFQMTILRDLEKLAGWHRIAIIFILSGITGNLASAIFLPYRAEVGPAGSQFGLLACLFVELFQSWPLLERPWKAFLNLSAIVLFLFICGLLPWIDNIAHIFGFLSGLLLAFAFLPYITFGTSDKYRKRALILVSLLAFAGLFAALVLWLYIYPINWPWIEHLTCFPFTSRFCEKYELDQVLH

[2] = molecular target: T2, human iRhom2 with the TOC mutation I186T (HA tag) (human) (UniProt Q6PJF5)
T2 sequence: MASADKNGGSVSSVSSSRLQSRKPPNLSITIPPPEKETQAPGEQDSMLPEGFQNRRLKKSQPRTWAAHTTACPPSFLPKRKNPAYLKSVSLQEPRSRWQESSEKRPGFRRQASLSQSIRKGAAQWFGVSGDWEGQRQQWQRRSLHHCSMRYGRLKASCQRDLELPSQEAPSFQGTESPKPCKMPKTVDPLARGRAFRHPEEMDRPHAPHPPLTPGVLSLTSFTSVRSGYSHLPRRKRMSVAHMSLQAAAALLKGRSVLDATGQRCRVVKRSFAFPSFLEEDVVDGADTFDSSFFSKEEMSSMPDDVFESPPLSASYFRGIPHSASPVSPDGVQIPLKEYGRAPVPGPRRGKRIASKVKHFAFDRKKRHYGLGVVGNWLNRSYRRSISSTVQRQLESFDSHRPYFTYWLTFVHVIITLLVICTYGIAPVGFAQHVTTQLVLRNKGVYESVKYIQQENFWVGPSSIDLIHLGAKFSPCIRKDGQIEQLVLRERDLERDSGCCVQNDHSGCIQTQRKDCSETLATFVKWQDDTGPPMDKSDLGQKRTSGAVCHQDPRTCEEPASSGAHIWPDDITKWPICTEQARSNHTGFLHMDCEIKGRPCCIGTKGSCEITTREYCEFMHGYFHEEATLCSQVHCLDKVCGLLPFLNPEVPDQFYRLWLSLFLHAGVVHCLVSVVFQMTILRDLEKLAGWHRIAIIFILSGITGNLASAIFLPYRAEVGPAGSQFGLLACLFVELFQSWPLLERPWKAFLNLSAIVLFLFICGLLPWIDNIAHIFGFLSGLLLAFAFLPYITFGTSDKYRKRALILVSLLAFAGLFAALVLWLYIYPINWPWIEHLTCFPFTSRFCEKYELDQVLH

[3] = molecular target: T3, human wt-iRhom2 (HA tag) (human) (UniProt Q6PJF5)
T3 sequence: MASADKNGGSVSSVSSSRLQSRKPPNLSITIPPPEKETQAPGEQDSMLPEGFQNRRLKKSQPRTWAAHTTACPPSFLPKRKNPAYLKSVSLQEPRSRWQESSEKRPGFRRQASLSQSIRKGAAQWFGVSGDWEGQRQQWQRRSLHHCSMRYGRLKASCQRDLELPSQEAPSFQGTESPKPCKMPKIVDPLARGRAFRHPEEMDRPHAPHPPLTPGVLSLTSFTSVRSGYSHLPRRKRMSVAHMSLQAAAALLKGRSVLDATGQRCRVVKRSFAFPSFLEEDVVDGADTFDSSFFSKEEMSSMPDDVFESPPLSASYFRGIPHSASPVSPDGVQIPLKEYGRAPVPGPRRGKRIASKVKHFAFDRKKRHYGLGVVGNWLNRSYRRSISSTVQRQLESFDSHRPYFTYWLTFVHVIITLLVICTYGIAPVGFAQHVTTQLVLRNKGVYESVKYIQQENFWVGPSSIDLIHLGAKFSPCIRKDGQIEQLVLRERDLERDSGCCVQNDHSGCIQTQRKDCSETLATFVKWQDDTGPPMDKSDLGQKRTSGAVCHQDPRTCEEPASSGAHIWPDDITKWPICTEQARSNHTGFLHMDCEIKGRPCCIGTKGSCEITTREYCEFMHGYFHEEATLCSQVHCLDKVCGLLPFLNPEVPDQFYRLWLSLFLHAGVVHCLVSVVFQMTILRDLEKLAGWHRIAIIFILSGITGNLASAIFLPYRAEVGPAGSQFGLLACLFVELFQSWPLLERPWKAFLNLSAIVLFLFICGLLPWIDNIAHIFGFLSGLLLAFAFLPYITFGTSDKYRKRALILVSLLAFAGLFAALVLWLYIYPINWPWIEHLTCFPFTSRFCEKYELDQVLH

Measured: binding

B1: FRMD8 (endogenous, HEK293) (protein, UniProt Q9BZ67 1-464)
chain: MDGTEGSAGQPGPAERSHRSSVSSVGARAADVLVYLADDTVVPLAVENLPSLSAHELHRAVREVLQLPDIALDVFALWLVSPLLEVQLKPKHQPYKLGRQWPELLLRFTSAPDDDVAMDEPFLQFRRNVFFPKRRELQIHDEEVLRLLYEEAKGNVLAARYPCDVEDCEALGALVCRVQLGPYQPGRPAACDLREKLDSFLPAHLCKRGQSLFAALRGRGARAGPGEQGLLNAYRQVQEVSSDGGCEAALGTHYRAYLLKCHELPFYGCAFFHGEVDKPAQGFLHRGGRKPVSVAISLEGVHVIDSREKHVLLGLRFQELSWDHTSPEEEEPILWLEFDGDSEGTPVNKLLKIYSKQAELMSSLIEYCIELSQAAEPAGPQDSATGSPSDPSSSLAPVQRPKLRRQGSVVSSRIQHLSTIDYVEDGKGIRRVKPKRTTSFFSRQLSLGQGSYTVVQPGDSLEQG
binds: [1] | [2] | [3]
